Results published in ChEMBL document CHEMBL1143035, “Synthesis, antifungal and haemolytic activity of a series of bis(pyridinium)alkanes” (Bioorg Med Chem, 2007).
In brackets after ≈: the same amount, converted by molar mass.

Test system: Aspergillus fumigatus
Test: Antifungal activity against Aspergillus fumigatus ATCC 204 305
Format: functional

`C[C@@H]1[C@H](O)[C@@H](C)/C=C/C=C/C=C/C=C/C=C/C=C/C=C/[C@H](O[C@@H]2O[C@H](C)[C@@H](O)[C@H](N)[C@@H]2O)C[C@@H]2O[C@](O)(C[C@@H](O)C[C@@H](O)[C@H](O)CC[C@@H](O)C[C@@H](O)CC(=O)O[C@H]1C)C[C@H](O)[C@H]2C(=O)O` [AMPHOTERICIN B] gave an MIC of 0.55 µM (≈ 0.508 µg/mL).
